These are yes or no findings as the source states them, for the method shown. Some results given as binding are weak or reduced against the parent protein; the word gives no strength. Blank lines part the entries; values can stand above or below the binder they belong to.
Target: β-catenin protein (purified antigen of Example 5) (Homo sapiens (Human)) (UniProt P35222)
Test: monoclonal phage ELISA on coated β-catenin (1 µg/ml), anti-M13-HRP, OD450; >0.5 counted as positive

By UniProt entry, the sequences of proteins in these tests, tags left out. Where a name states a change or a piece, a line headed by the entry shows the natural chain unless it says otherwise.
UniProt P35222: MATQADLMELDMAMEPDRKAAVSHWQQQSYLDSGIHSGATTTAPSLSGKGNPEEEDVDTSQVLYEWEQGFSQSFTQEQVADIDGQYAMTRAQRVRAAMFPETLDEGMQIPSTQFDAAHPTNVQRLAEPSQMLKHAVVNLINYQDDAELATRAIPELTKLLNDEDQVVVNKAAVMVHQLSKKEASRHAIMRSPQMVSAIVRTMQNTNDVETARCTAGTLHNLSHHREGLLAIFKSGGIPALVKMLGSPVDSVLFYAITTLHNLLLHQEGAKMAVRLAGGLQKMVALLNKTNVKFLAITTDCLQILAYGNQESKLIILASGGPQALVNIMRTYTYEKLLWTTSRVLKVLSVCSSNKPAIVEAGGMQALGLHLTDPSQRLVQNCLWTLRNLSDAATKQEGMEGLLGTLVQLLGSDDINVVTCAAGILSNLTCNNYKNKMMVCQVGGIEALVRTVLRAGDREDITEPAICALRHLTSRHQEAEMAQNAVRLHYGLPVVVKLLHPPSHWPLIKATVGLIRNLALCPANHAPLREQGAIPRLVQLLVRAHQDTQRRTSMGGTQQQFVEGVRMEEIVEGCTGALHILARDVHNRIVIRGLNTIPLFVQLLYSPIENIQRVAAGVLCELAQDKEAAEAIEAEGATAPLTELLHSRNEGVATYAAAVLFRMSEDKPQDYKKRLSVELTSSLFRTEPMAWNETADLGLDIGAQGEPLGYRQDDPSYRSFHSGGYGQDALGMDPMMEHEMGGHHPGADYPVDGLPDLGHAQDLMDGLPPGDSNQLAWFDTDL

B1: BC12 (VHH)
VHH: EVQVQESGGGLVQPGGSLRLSCAASGSFYSIVAMGWYRQAPGQQRELVATVTSGGSGGSVTNYADSVKGRFTISRDNAKNTVDLQMNSLKPDDTAVYSCWARVRVTPERFFSYWDRGTQVTVAS
- binding: binds

B4: BC14 (VHH)
VHH: GGALAQPGGSLTLSCAVSGFTFDYDAAELRDYVLGWIRQVPGKEPEGVSCSSRDGTAYYSDSVKGRFTIYRDNQKNTVYLQMNSLKPDDTAVYYCAAHDLIVYYNDFPLCSTYDYDYWGQGIQVTVSS
- binding: binds

B6: BC11 (VHH)
VHH: QVQLVETGGGLVQPGGSLRLSCVASGFKFDAYAMSWARQAPGKWLEWVSDISWNGVSEYYAESMKGRFTISRDNAKNTVYLQMSSLKPEDTAVYYCAKQARPQEVGVPTFQVTGYGMDYWGKGALVTASS
- binding: binds

Second part, the binder after the results:

- binding: binds
B2: BC3 (VHH)
VHH: EVQLVQPGGSLRLSCAVSGSISNFNAMGWYRQAPGKQRELVATITRGGSTDYAASVKGRFTISRDSAANTVYLQMNSLKPEDTAVYYCNAQRSPLILTTSRTHNYWGQGTQVTVSS

- binding: binds
B3: BC13 (VHH)
VHH: QVQLVETGGGLVAPGGSLTLSCVASGSIFSIYSMGWYRQAPGKERELVADTTAGNTPHYGESVRGRFTISSISRDSAKNTVYLQMSDLKPDDTAVYYCAMGISHNWYAPSIYWGRGTQVTVSS

- binding: binds
B5: BC6 (VHH)
VHH: QVQRQESGGGLVQPGGSLRLSCAASGDIFRVNDMAWYRQAPGKQRELVATITRGGGVAYADSVKGRFTISRDNSKNTVALQMNSLKPDDTAVYYCNADVQVGRNYEYNYWGQGTQVTVSS

From patent US20230027739A1, “ANTIGEN-BINDING AND ANTIGEN D[…]” (Entrada Therapeutics, Inc., priority 2021, published 2023)
